Publication PMC12077799, “Fragment-based drug discovery for transthyretin kinetic stabilisers using a novel capillary zone electrophoresis method” (PLOS One, 2025)

Biological target: Human transthyretin (TTR) thyroxine binding sites (Homo sapiens, UniProt P02766)
Test: TTR CZE Free Probe Peak Height Restoration (FPPHR) assay, 8-ANS displacement
Conditions: compound 50 μM in Running Buffer; 10% minimum for a binder

Cc1[nH]nc(N)c1-c1ccccc1
FPPHR % at 50 μM: 34.59% and 34.78% tested at 50 µM

A number of entries come with more than one value. Only these are listed. An entry can have further records. The records of an entry do not match, cause unknown; they may come from other doses, times, organisms or constructs than stated.
